The list does not hold the whole screen: it gathers tests that were run many times, whatever their T/C, doses with no T/C, and many T/C values between a quarter and a half above the control. Further doses and runs are listed elsewhere. T/C gives the treated animals as a percentage of the vehicle group. Some entries give survivors of the animals treated and no T/C: the source holds a T/C of zero for them, seemingly a mark for toxic or unscored doses. Some doses without a T/C left all or most animals alive at the check, yet need not have been tolerated: the source hardly ever lists a survival T/C far under the control, and the zero likely stands for such cases as well. Counts of survivors are from the toxicity check (mostly the fifth day) where no day follows; animals may have died later. Schedules are NCI's codes, read here as Q, the interval in days (D) or hours (H), X, the number of doses. Some doses were run more than once; the values are given in rising order. Some molecules as drawn cover several salts, stereoisomers or complexes of the source; a dose is that of the sample tested. Brackets with × give the number of equal values in this list. For survival time, the PubChem record calls one and a half times the control and up active, and a quarter to a half above the control has no call in these data; cut-offs in other NCI protocols can differ. Some T/C values carry the count of animals alive at the toxicity check (mostly the fifth day); where none is given, no animal had died by that day.
Test system: P388 leukemia ip, CD2F1 mice, survival T/C
Assay: NCI In Vivo Anticancer Drug Screen. Data for tumor model P388 Leukemia (intraperitoneal) in CD2F1 (CDF1) mice
Conditions: T/C endpoint: median survival time, higher T/C = longer survival
[1] = dose: 200.0 mg/kg/injection, schedule: Q01DX005 (ip), vehicle: Klucel (hydroxypropylcellulose) (HPC)
[2] = dose: 100.0 mg/kg/injection, schedule: Q01DX009 (ip), vehicle: saline
[3] = dose: 100.0 mg/kg/injection, schedule: Q01DX005 (ip), vehicle: Klucel (hydroxypropylcellulose) (HPC)
[4] = dose: 200.0 mg/kg/injection, schedule: Q01DX009 (ip), vehicle: saline with Tween-80
[5] = dose: 400.0 mg/kg/injection, schedule: Q01DX009 (ip), vehicle: saline with Tween-80
[6] = dose: 200.0 mg/kg/injection, schedule: Q01DX009 (ip), vehicle: water
[7] = dose: 200.0 mg/kg/injection, schedule: Q01DX009 (ip), vehicle: Klucel (hydroxypropylcellulose) (HPC)
[8] = dose: 25.0 micrograms/kg/injection, schedule: Q01DX009 (ip), vehicle: saline + alcohol
[9] = dose: 50.0 micrograms/kg/injection, schedule: Q01DX009 (ip), vehicle: saline + alcohol

**Q.** With `NC(N)=NS(=O)(=O)c1ccc(NCc2c3ccccc3nc3ccccc23)cc1` as the compound, how does the T/C (dose: 6.25 mg/kg/injection, schedule: Q04DX002 (ip), vehicle: Klucel (hydroxypropylcellulose) (HPC)) read?
**A.** 126 % of control

**Q.** And the T/C (dose: 12.5 mg/kg/injection, schedule: Q04DX002 (ip), vehicle: Klucel (hydroxypropylcellulose) (HPC))?
**A.** 126 % of control

**Q.** And the T/C (dose: 25.0 mg/kg/injection, schedule: Q04DX002 (ip), vehicle: Klucel (hydroxypropylcellulose) (HPC))?
**A.** 140 % of control

**Q.** What about the T/C (dose: 50.0 mg/kg/injection, schedule: Q04DX002 (ip), vehicle: Klucel (hydroxypropylcellulose) (HPC)) of the same compound?
**A.** 145 % of control

**Q.** And the T/C (dose: 50.0 mg/kg/injection, schedule: Q04DX003 (ip), vehicle: Klucel (hydroxypropylcellulose) (HPC))?
**A.** 148 % of control

**Q.** What about the T/C (dose: 100.0 mg/kg/injection, schedule: Q04DX002 (ip), vehicle: Klucel (hydroxypropylcellulose) (HPC)) of the same compound?
**A.** 140 % of control

**Q.** What about the T/C (dose: 100.0 mg/kg/injection, schedule: Q04DX003 (ip), vehicle: Klucel (hydroxypropylcellulose) (HPC)) of the same compound?
**A.** 144 % of control

**Q.** And the T/C (dose: 200.0 mg/kg/injection, schedule: Q04DX002 (ip), vehicle: Klucel (hydroxypropylcellulose) (HPC))?
**A.** 140 % of control

**Q.** And the T/C (dose: 200.0 mg/kg/injection, schedule: Q04DX003 (ip), vehicle: Klucel (hydroxypropylcellulose) (HPC))?
**A.** 144 % of control

**Q.** What about the T/C (dose: 400.0 mg/kg/injection, schedule: Q04DX002 (ip), vehicle: Klucel (hydroxypropylcellulose) (HPC)) of the same compound?
**A.** 145 % of control

**Q.** Which survivor count [1] does the source give for `Cc1c(C)n(-c2ccccc2)c2nc(C)n(-c3ccccc3Cl)c(=N)c12` here?
**A.** 0 of 6

**Q.** Which results are given for `COc1ccc(OCC2CN(C)CCC2c2ccccc2)cc1` (stereo unspecified)?
**A.** survivor count [2]: 6 of 6; survivor count (dose: 200.0 mg/kg/injection, schedule: Q01DX009 (ip), vehicle: saline): 0 of 6

**Q.** `C=C(Cl)C(=NC(C)(C)C)Nc1c(Cl)cccc1Cl` was tested. Which survivor count [3] did it give?
**A.** 3 of 5

**Q.** `C1=NN2C3c4ccccc4C(C1)C32` (stereo unspecified) was tested. Which survivor count (dose: 400.0 mg/kg/injection, schedule: Q01DX001 (ip), vehicle: Klucel (hydroxypropylcellulose) (HPC)) did it give?
**A.** 0 of 6

**Q.** For `O=[N+]([O-])c1ccc2c(N=Nc3ccc4ccccc4c3O)c(O)cc(S(=O)(=O)O)c2c1`, which survivor count [4] is on record?
**A.** 5 of 6

**Q.** And the survivor count [5]?
**A.** 3 of 6

**Q.** `NNS(=O)(=O)CCC(N)C(=O)O` (stereo unspecified) was tested. Which survivor count [6] did it give?
**A.** 6 of 6

**Q.** For `CC(C)C(NC(=O)[C@@H](C(C)C)N1C(=O)c2ccccc2C1=O)C(=O)O` (stereo partly specified), which survivor count (dose: 100.0 mg/kg/injection, schedule: Q01DX005 (ip), vehicle: saline with Tween-80) is on record?
**A.** 5 of 5

**Q.** `NNc1nncn1N` was tested. Which survivor count (dose: 400.0 mg/kg/injection, schedule: Q01DX009 (ip), vehicle: saline) did it give?
**A.** 0 of 6

**Q.** Which survivor count (dose: 240.0 mg/kg/injection, schedule: Q01DX005 (ip), vehicle: Klucel (hydroxypropylcellulose) (HPC)) does the source give for `COC(=O)c1nc(N)nc(C(=O)OC)c1C(=O)c1cccnc1` here?
**A.** 0 of 6

**Q.** With `C[N+]1=C(/C=C/Nc2ccc(Cl)cc2)C(C)(C)c2ccccc21` as the compound, how does the survivor count (dose: 50.0 mg/kg/injection, schedule: Q01DX009 (ip), vehicle: Klucel (hydroxypropylcellulose) (HPC)) read?
**A.** 2 of 6

**Q.** And the survivor count (dose: 100.0 mg/kg/injection, schedule: Q01DX009 (ip), vehicle: Klucel (hydroxypropylcellulose) (HPC))?
**A.** 0 of 6

**Q.** What about the survivor count [7] of the same compound?
**A.** 0 of 6

**Q.** How did the T/C (dose: 25.0 mg/kg/injection, schedule: Q01DX009 (ip), vehicle: water) turn out when `Cc1nnc(NN=O)nc1C` was run?
**A.** 133 % of control

**Q.** What about the survivor count [6] of the same compound?
**A.** 1 of 6

**Q.** Which results are given for `CC1CCC2C(C)C3C(CC4C5CC=C6CC(OC7OC(CO)C(O)C(OC8OC(CO)C(O)C(O)C8O)C7OC7OC(C)C(O)C(O)C7O)CCC6(C)C5CCC43C)N2C1` (stereo unspecified)?
**A.** survivor count (dose: 50.0 mg/kg/injection, schedule: Q01DX005 (ip), vehicle: Klucel (hydroxypropylcellulose) (HPC)): 0 of 5; survivor count [3]: 0 of 5; survivor count [1]: 0 of 5; survivor count (dose: 200.0 mg/kg/injection, schedule: Q04DX003 (ip), vehicle: suspension in saline): 6 of 6

**Q.** For `COc1ncc(Br)cc1C(=O)NCCc1ccc(S(=O)(=O)NC(=O)NC2CCCCC2)cc1`, which survivor count [4] is on record?
**A.** 1 of 6

**Q.** How did the survivor count [2] turn out when `C=C(C)C(=O)OC1CCC2(C)C(CCC3C2CCC2(C)C(c4ccc(=O)oc4)CCC32O)C1` (stereo unspecified) was run?
**A.** 5 of 6

**Q.** `COc1cc2c3c(c1)/C(=N\Nc1ccccc1)CCN3CCC2` was tested. Which survivor count (dose: 6.25 mg/kg/injection, schedule: Q01DX009 (ip), vehicle: DMSO) did it give?
**A.** 2 of 6

**Q.** And the survivor count (dose: 12.5 mg/kg/injection, schedule: Q01DX009 (ip), vehicle: DMSO)?
**A.** 2 of 6

**Q.** And the survivor count (dose: 25.0 mg/kg/injection, schedule: Q01DX009 (ip), vehicle: DMSO)?
**A.** 3 of 6

**Q.** What about the survivor count (dose: 50.0 mg/kg/injection, schedule: Q01DX009 (ip), vehicle: DMSO) of the same compound?
**A.** 1 of 6

**Q.** Which results are given for `COc1cc(OC)c(C(=O)/C=C/c2ccncc2)cc1C(=O)O`?
**A.** T/C (dose: 200.0 mg/kg/injection, schedule: Q01DX009 (ip), vehicle: suspension in saline): 128 [5 of 6 alive] and 130 % of control; T/C (dose: 400.0 mg/kg/injection, schedule: Q01DX009 (ip), vehicle: suspension in saline): 129 % of control [4 of 6 alive]

**Q.** With `CNC(=O)OCc1c(COC(=O)NC)c(-c2ccccc2)n2c1CCC2` as the compound, how does the survivor count [7] read?
**A.** 6 of 6

**Q.** With `Cc1[nH]c(C)c2ccc(=O)ccc12` as the compound, how does the survivor count (dose: 120.0 mg/kg/injection, schedule: Q01DX005 (ip), vehicle: suspension in saline) read?
**A.** 6 of 6

**Q.** How did the survivor count (dose: 100.0 mg/kg/injection, schedule: Q04DX003 (ip), vehicle: saline with Tween-80) turn out when `CS(=O)(=O)Nc1ccc(Nc2c3ccccc3nc3cc(N)ccc23)cc1` was run?
**A.** 2 of 6

**Q.** What about the survivor count (dose: 200.0 mg/kg/injection, schedule: Q04DX003 (ip), vehicle: saline with Tween-80) of the same compound?
**A.** 3 of 6

**Q.** What about the survivor count (dose: 400.0 mg/kg/injection, schedule: Q04DX003 (ip), vehicle: saline with Tween-80) of the same compound?
**A.** 0 of 6

**Q.** What does the source list for `COc1cc2cc(c1Cl)N(C)C(=O)CC(OC(=O)C(C)C)C1(C)OC1C(C)C1CC(O)(NC(=O)O1)C(OC)/C=C/C=C(C)C2` (stereo unspecified)?
**A.** T/C (dose: 6.25 micrograms/kg/injection, schedule: Q01DX009 (ip), vehicle: saline + alcohol): 130 % of control; T/C (dose: 6.3 micrograms/kg/injection, schedule: Q01DX009 (ip), vehicle: saline + alcohol): 132 % of control; T/C (dose: 12.5 micrograms/kg/injection, schedule: Q01DX009 (ip), vehicle: saline + alcohol): 107, 130, 133, 140 % of control; T/C [8]: 111, 133, 141 % of control; survivor count [8]: 6 of 6; T/C [9]: 113 and 150 % of control; survivor count [9]: 3 of 6 and 6 of 6; survivor count (dose: 100.0 micrograms/kg/injection, schedule: Q01DX009 (ip), vehicle: saline + alcohol): 3 of 6; survivor count (dose: 200.0 micrograms/kg/injection, schedule: Q01DX009 (ip), vehicle: saline + alcohol): 1 of 6 (2×)

**Q.** `COc1cc(NC(=O)N(CCCl)N=O)cc(OC)c1OC` was tested. Which T/C (dose: 0.59 mg/kg/injection, schedule: Q01DX009 (ip), vehicle: saline + alcohol) did it give?
**A.** 143 % of control

**Q.** And the T/C (dose: 0.88 mg/kg/injection, schedule: Q01DX009 (ip), vehicle: saline + alcohol)?
**A.** 148 % of control

**Q.** What about the T/C (dose: 2.2 mg/kg/injection, schedule: Q04DX003 (ip), vehicle: saline + alcohol) of the same compound?
**A.** 136 % of control

**Q.** What about the T/C (dose: 3.3 mg/kg/injection, schedule: Q04DX003 (ip), vehicle: saline + alcohol) of the same compound?
**A.** 136 % of control

**Q.** What about the T/C (dose: 5.0 mg/kg/injection, schedule: Q04DX003 (ip), vehicle: saline + alcohol) of the same compound?
**A.** 136 % of control

**Q.** And the survivor count (dose: 100.0 mg/kg/injection, schedule: Q04DX003 (ip), vehicle: other)?
**A.** 5 of 6

**Q.** What about the survivor count (dose: 200.0 mg/kg/injection, schedule: Q04DX003 (ip), vehicle: other) of the same compound?
**A.** 0 of 6

**Q.** What about the survivor count (dose: 400.0 mg/kg/injection, schedule: Q04DX003 (ip), vehicle: other) of the same compound?
**A.** 0 of 6

**Q.** With `CCC(CC)COC(=O)c1ccccc1C(=O)OCC(CC)CC` as the compound, how does the T/C [5] read?
**A.** 132 and 148 % of control

**Q.** And the T/C (dose: 600.0 mg/kg/injection, schedule: Q01DX009 (ip), vehicle: saline with Tween-80)?
**A.** 128 % of control

**Q.** Which results are given for `CC1([CH2][Hg][I])OCCOC1[CH2][Hg][I]` (stereo unspecified)?
**A.** survivor count (dose: 50.0 mg/kg/injection, schedule: Q01DX009 (ip), vehicle: saline): 1 of 6; survivor count [2]: 1 of 6

**Q.** For `N=c1c2ncn(C3OC(CO)C(O)C3O)c2ncn1O` (stereo unspecified), which survivor count (dose: 100.0 mg/kg/injection, schedule: Q01DX005 (ip), vehicle: saline) is on record?
**A.** 3 of 6

**Q.** What about the survivor count (dose: 200.0 mg/kg/injection, schedule: Q01DX005 (ip), vehicle: saline) of the same compound?
**A.** 0 of 6

Reference: PubChem BioAssay AID330 (DTP/NCI, 2004)
